Results from US7629503B2, “Δ-4 desaturases from Euglena gracilis, expressing plants, and oils containing PUFA” (BASF Plant Science GmbH, priority 2003, dated 2009).
For at least one compound, name, drawing or mass did not settle the structure.

System: Euglena gracilis Δ4-desaturase
Assay: Substrate specificity: feeding fatty acids to yeast expressing the Δ-4-desaturase (pYES-EGD4-2), fatty acid analysis by GC
Assay type: cell-based
Conditions: yeast strain with pYES-EGD4-2 construct compared with control yeast strain without the Δ-4-desaturase gene
Procedure: Yeasts transformed with the plasmid pYES-EGD4-2 as in Example 4 were analyzed in the following way:
The yeast cells were grown in 1 ml of minimal medium with 0.2% raffinose for two days and then transferred into 5 ml of the same medium. This culture was grown at 30° C. for 6 h until the OD600 was 0.05. Then 100 μM of the fatty acid substrates (67 μM for 16:1 Δ7) were added, and the expression of the Δ-4-desaturase was induced by adding 2% galactose. The cells were then incubated at 15° C. for 4 days, harvested, washed with 100 mM NaHCO3 and employed for the fatty acid analysis by GC.
The substrate specificities were found by feeding the transformed yeast strains with different fatty acids (Tab. 1). Conversion of the fed fatty acids to their Δ4-desaturated products was then determined.

**Q.** For `CC/C=C\C/C=C\C/C=C\C/C=C\C/C=C\CCCCCC(=O)O` [22:5 Δ7, 10, 13, 16, 19, docosapentaenoic acid], which “Desaturation of the fed fatty acid (GC analysis, FIG. 4)” value is on record?
**A.** The value was “desaturated to DHA”.
